Consider three substances from publication PMC9315800.

The chains behind the UniProt entries cited, without tags or fusion partners.
UniProt P03101: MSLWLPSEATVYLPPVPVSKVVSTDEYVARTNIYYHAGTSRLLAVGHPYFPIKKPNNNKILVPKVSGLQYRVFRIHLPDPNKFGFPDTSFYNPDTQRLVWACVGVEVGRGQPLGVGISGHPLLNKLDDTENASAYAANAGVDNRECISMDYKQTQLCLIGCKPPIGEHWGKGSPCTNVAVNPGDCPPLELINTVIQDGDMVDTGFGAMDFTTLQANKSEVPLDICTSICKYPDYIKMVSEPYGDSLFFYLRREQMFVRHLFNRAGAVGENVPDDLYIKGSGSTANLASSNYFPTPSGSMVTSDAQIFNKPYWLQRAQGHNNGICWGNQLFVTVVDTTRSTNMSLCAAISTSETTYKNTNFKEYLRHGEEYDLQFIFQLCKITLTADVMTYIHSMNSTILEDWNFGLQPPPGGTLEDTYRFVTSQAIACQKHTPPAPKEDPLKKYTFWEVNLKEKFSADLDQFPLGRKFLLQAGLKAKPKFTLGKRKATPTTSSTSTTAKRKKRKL
UniProt P03107: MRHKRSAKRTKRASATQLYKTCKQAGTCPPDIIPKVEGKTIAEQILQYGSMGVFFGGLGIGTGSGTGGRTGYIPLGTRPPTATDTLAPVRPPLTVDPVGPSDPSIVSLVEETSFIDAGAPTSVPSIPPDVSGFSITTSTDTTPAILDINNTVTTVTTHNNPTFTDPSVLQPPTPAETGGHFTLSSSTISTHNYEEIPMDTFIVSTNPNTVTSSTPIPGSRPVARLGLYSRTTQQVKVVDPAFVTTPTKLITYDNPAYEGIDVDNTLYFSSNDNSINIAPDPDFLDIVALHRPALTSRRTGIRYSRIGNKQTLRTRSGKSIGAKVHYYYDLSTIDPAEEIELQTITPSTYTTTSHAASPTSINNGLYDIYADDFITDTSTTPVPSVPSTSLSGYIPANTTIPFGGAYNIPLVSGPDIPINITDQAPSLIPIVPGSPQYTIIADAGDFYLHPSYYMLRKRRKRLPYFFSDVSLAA

No constants are given. Whether binding was seen depends on the method and setting. Binding seen in cells or lysates may run through a third protein. Some binding calls cover weakened binding; strength is not graded here.

The target of the assay is autophagy adaptor protein p62/SQSTM1 (sequestosome-1) (human (endogenous in HeLa)) (UniProt Q13501). Description: co-IP.
Regarding “HPV16 major capsid protein L1 (of incoming HPV16 pseudoviruses) (from UniProt P03101 1-505)”, the binding result is “binds”.

For “HPV16 minor capsid protein L2 (of incoming HPV16 pseudoviruses) (from UniProt P03107 1-473)”, the binding entry is listed as “binds”.

With “HPV16 minor capsid protein L2 (overexpressed in HeLa cells) (from UniProt P03107 1-473)”, the binding result is recorded as “binds”.
